Data taken from publication PMC10163288.
This is one part of the list.

B1: il2ra_site1_1z92_sap_13_mot_HHH_b2_03060_000000008_0001_1_18_H_._HHH_b1_00868_0001_0000100010_0000001_0_0001_af2pred_0001_af2pred_1 (protein)
chain: DEVLERDLRQAEKAGIPPEDAVRAVIRALAFHLRVPPEEAAEILLEILEKLGDPELAEIARELTP
B2: il2ra_site1_2b5i_sap_11_mot_HHH_b1_03854_af2_000000091_0001_42_55_H_._HHH_b2_01249_af2_0001_0000100007_0000001_0_0001_af2pred_0001_af2pred_1 (protein)
chain: SSSSNERREEALELFKRANELLRNGNPEEAHELLEEAAELARELGNRSLLKAIELALRQFESSSS
B3: il2ra_site2_2erj_sap_21_mot_HHH_b2_08311_000000098_0001_42_56_H_._HHH_b1_01434_af2_0001_0000100002_0000001_0_0001 (protein)
chain: SSSDREELEEVLRLIEEALEEGDAEALNKLIRRAIELVQRVNDPELFRILWELLREIHEKLSSSS
B4: il2ra_site1_3nfp_sap_10_mot_d8099cd8ef6a59b9c03de2010570d688_0001_af2_000000259_0001_37_51_H_._HHH_b1_03897_0001_0000100001_0000001_0_0001 (protein)
chain: SSSSSLHFVERDLEKLAKRGNEELVRRLLERFARDAERSGNPEAAEKLEEFAERVLEEAKSSSSS
B5: il2ra_site2_2erj_normal_mot_HHH_b1_06099_000000027_0001_20_36_H_._b0b48449b8979d840ab1151e5fe11a36_0001_af2_0001_0000600021_0000001_0 (protein)
chain: DEELEELAQLLRRGDREAYRLLLRLLQRIERGDPEAKEKLEEAIRLAEELGDEYVVESLEVLLRI
B6: il2ra_site1_2b5i_sap_17_mot_HHH_b2_00513_af2_000000146_0001_23_38_H_._HHH_b2_08134_0001_0000200024_0000001_0_0001_af2pred_0001_af2pred (protein)
chain: SSSSTEEQEEILRLLEEAQEADENGDPEEAERLLERALELAEEAGSPSARKFVEAALRQTSSSSS
B7: il2ra_site2_3nfp_normal_mot_HHH_b2_04230_000000235_0001_39_52_H_._HHH_b1_08287_0001_0000400025_0000001_0 (protein)
chain: SSSSSEFEKRLEELLEELEKLVREGNEEEFRRVAAEIAHLAFKGNDHEAYFRLAELAYAFYSSSS
B8: il2ra_site1_1z92_sap_27_mot_HHH_b2_05274_af2_000000237_0001_23_40_H_._HHH_b1_06755_0001_0000200009_0000001_1_0001_af2pred_0001_af2pred (protein)
chain: DIEEVLEEAAELVEEGNPEEAKRLLEELVRKTGDPALKFLLEAVEAKLKRGDLEAVRKLLERAAR
B9: il2ra_site2_2erj_normal_mot_HHH_b1_06542_af2_000000257_0001_1_17_H_._HHH_b1_04567_0001_0000500031_0000001_0 (protein)
chain: SSSSNEEEQVKAIEEDAERLEEEGDPELARAYLELAERFAERSRDEEVLRLLEKLLRELRNSSSS
B10: il2ra_site1_2b5i_normal_mot_2cbe48e66a1f39b3fed734b245ab0a04_0001_000000015_0001_17_31_H_._HHH_b2_07409_0001_0000200008_0000001_0_af2pred_dldesign_0_af2pred (protein)
chain: SSSSAATRARVRALMEEARKLAKEGKEEEVSKLLFEALYLARAARDPELAAEVEALYRELSSSSS
B11: il2ra_site2_3nfp_normal_mot_ems_p1-15H-GBL-16H-GBL-14H_0089_0001_0001_0001_af2_000000072_0001_19_33_H_._738ccc93aada9afe30a0d8950425dc90_0001_1_0001_0000100009_ … (protein)
chain: DVQAELAELAYERRDFRVFAALADILALKEQGVPPEEIEQIVEEIIKKAGLPPEIEELLRKAVEE
B12: il2ra_site2_3nfp_normal_mot_HHH_b1_00239_000000199_0001_23_39_H_._HHH_b1_01329_af2_0001_0000600038_0000001_0 (protein)
chain: SSSSDDEKHEEMVELAIRLAEEAGDEEVLEELEELLKRAREEGDFRLLLEAYALLARRYKNSSSS
B13: il2ra_site1_3nfp_normal_mot_HHH_b2_02053_000000240_0001_1_20_H_._66959ead3e6c57cb3ef8243f3eb758e0_0001_1_af2_0001_0000200018_0000001_0_af2pred_0001_af2pred_swap … (protein)
chain: SAAEILLERAVKENSESALRKFIEDLLRTFGNPEEVEKFLEELVKALGLPPEVLERLEKLLEELT
B14: il2ra_site1_2b5i_normal_mot_HHH_b1_01507_000000251_0001_20_36_H_._HHH_b2_06566_af2_0001_0000300022_0000001_0_af2pred_dldesign_0_af2pred (protein)
chain: SSSSSPEDAKRIRELVKKADELFKAGKEEEARKALEEALKLAKENNMTGTAKFLEACLASLSSSS
B15: il2ra_site2_3nfp_normal_mot_HHH_b2_00615_000000276_0001_1_15_H_._HHH_b2_03465_0001_0000600023_0000001_0 (protein)
chain: SSSSDNLEVWELLREALEALREGNPEEAREILEEAEKIAKENNSRVARRAVETVKENIEFGSSSS
B16: il2ra_site1_1z92_sap_25_mot_4a166e40179e6c064b671d174dbdc8c6_0001_000000090_0001_35_49_H_._493e05f641973f3adf044177f88ae147_0001_0001_0000100019_0000001_0_0001 (protein)
chain: TRKELQKMIEELREEGVPPEEIVKILLELVEKDAGDPRLALQFLKRLLKKLGDPELLRVLEELIK
B17: il2ra_site1_2b5i_normal_mot_HHH_b1_02810_af2_000000252_0001_1_19_H_._HHH_b1_06010_af2_0001_0000300034_0000001_0_af2pred_dldesign_0_af2pred (protein)
chain: SSSSSSEEEVYELYKEALRLRKQGKYEEAKKVLEKALELAKELGLETKVKELEELLERLKSSSSS
B18: il2ra_site1_1z92_sap_14_mot_cda1634bf71a07e6bb6bfbc1e51fcdca_0001_af2_000000299_0001_1_14_H_._HHH_b1_03988_0001_0000300022_0000001_0_0001_af2pred_0001_af2pred (protein)
chain: DVEELLKLARELGDEEVVEVAEILAHQLELRPDDTAARFAVEQLLKLLEEDPERAKKMAELSLRS

target: il2ra, P01589; assay: yeast display titration

Apparent Kd, inactive:
B1 no binding seen
B2 no binding seen
B3 no binding seen
B4 no binding seen
B5 no binding seen
B6 no binding seen
B7 no binding seen
B8 no binding seen
B9 no binding seen
B10 no binding seen
B11 no binding seen
B12 no binding seen
B13 no binding seen
B14 no binding seen
B15 no binding seen
B16 no binding seen
B17 no binding seen
B18 no binding seen

Pulled one by one from the entries so far (two):
Apparent Kd, inactive:
B18 no binding seen
B14 no binding seen
